± gives the uncertainty stated by the source. Many entries were measured with a wide error.
Test: self-splicing fitness, log relative to wild type (ln ratio); higher = more splicing; Tetrahymena group I intron in knt gene, E. coli kanamycin selection, DiMSum; sequences stand for … in CUCUCU…GGAGGGAAAAGUUAUCAGGCAUGCACCUGGUAGCUAGUCUUUAAACCAAUAGAUUGCAUCGGUUUAAAAGGCAAGACCGUCAAAUUGCGGGAAAGGGGUCAACAGCCGUUCAGUACCAAGUCUCAGGGGAAACUUUGAGAUGGCCUUGCAAAGGGUAUGGUAAUAAGCUGACGGACAUGGUCCUAACCACGCAGCCAAGUCCUAAGUCAACAGAUCUUCUGUUGAUAUGGAUGCAGUUCACAGACUAAAUGUCGGUCGGGGAAGAUGUAUUCUUCUCAUAAGAUAUAGUCGGACCUCUCCUUAAUGGGAGCUAGCGGAUGAAGUGAUGCAACACUGGAGCCGCUGGGAACUAAUUUGUAUGCGAAAGUAUAUUGAUUAGUUUUGGAGUACUCGUGGUCG
Summary of the method: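 Pooled colonies went to amplicon sequencing on an Illumina HiSeq 2500 after six replicate transformations. The plates were LB agar with 100 μg/mL carbenicillin, 50 μM IPTG and 0.2% rhamnose, with or without 25 μg/mL kanamycin, incubated overnight at 37°C or 30°C. The E. coli BL21(DE3) library had all eight P1ex-region intron nucleotides randomised, the intron placed in the knt kanamycin-resistance gene on pET-22b(+). DiMSum fitness is the error-weighted combination of replicate fold changes, kanamycin against none, normalised to wild type.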

Sequence | self-splicing fitness (ln) (30 °C) | self-splicing fitness (ln) (37 °C)
GAUGAGCAAUAUUACGGGGA | -4.22 ± 0.51 | 
CGGGAGCAAUAUUACGAAUU |  | -2.72 ± 0.53
GACGAGCAAUAUUACGCCAG | -4.66 ± 1 | 
AUUAAGCAAUAUUACGUCAC | -2.82 ± 0.55 | 
CGGGAGCAAUAUUACGAUAG | -2.71 ± 1.1 | 
GAGGAGCAAUAUUACGCACG | -3.96 ± 0.76 | 
AGCGAGCAAUAUUACGUUCC | -2.86 ± 0.61 | -1.3 ± 0.24
AGUGAGCAAUAUUACGUCUU | -1.07 ± 0.082 | -1.31 ± 0.1
AUCUAGCAAUAUUACGGUUC | -2.94 ± 0.32 | -2.34 ± 0.32
GAUAAGCAAUAUUACGAGAA | -2.31 ± 0.87 | 
CCAGAGCAAUAUUACGUUGG | -3.93 ± 0.23 | -2.57 ± 0.23
GCUAAGCAAUAUUACGCCCA | -1.23 ± 0.52 | -1.25 ± 0.63
AGUCAGCAAUAUUACGUCAC | -3.5 ± 1 | -2.51 ± 0.54
AAGAAGCAAUAUUACGCUUC |  | -3.2 ± 0.53
GGGGAGCAAUAUUACGGCCU | -2.65 ± 1.1 | -2.49 ± 0.5
UUUGAGCAAUAUUACGUUUC | -4.01 ± 0.53 | 
CCGAAGCAAUAUUACGCUCC |  | -2.96 ± 0.54
AGCUAGCAAUAUUACGCGCU | -1.96 ± 0.87 | -2.3 ± 1.1
AGUUAGCAAUAUUACGCUGC | -4.04 ± 1 | -2.91 ± 0.53
CAAGAGCAAUAUUACGUUUU | -3.35 ± 0.16 | -2.29 ± 0.15
CUGGAGCAAUAUUACGGUCC | -2.42 ± 1.2 | -1.37 ± 0.69
CGCUAGCAAUAUUACGCCAA | -3.66 ± 1 | 
ACAUAGCAAUAUUACGAAGU | -2.67 ± 0.21 | -2.85 ± 0.23

Sequence | self-splicing fitness (ln) (30 °C) | self-splicing fitness (ln) (37 °C)
UUAGAGCAAUAUUACGUCUU | -1.62 ± 0.097 | -0.85 ± 0.13
UCUCAGCAAUAUUACGUGUA | -1.47 ± 0.089 | -0.902 ± 0.08
UUAUAGCAAUAUUACGUCGC | -3.41 ± 0.77 | -2.97 ± 0.74
UCGAAGCAAUAUUACGUGUC | -4.26 ± 0.6 | 
AACGAGCAAUAUUACGCUCG |  | -2.47 ± 0.62
UCUCAGCAAUAUUACGCGAC | -3.93 ± 0.52 | 
UACGAGCAAUAUUACGAUAU | -2.39 ± 0.26 | -3.25 ± 0.37
UUACAGCAAUAUUACGAACC |  | -1.55 ± 0.84
CCUGAGCAAUAUUACGGACC | -4.88 ± 0.51 | 
GGCAAGCAAUAUUACGCCUG | -3.22 ± 0.64 | 
GUAGAGCAAUAUUACGAACC |  | -1.13 ± 1.2
CGCGAGCAAUAUUACGGAUA |  | -2.79 ± 0.53
GGCAAGCAAUAUUACGGCAC | -0.671 ± 0.071 | 0.369 ± 0.12
UGGGAGCAAUAUUACGGAAA |  | -2.18 ± 0.64
UCGGAGCAAUAUUACGCCGG | -0.831 ± 0.51 | -0.182 ± 0.73
CGCGAGCAAUAUUACGAAGC | -4.24 ± 0.74 | 
UAUUAGCAAUAUUACGCCGC | -1.82 ± 0.73 | 0.608 ± 1.1
ACGUAGCAAUAUUACGAAGC | -4.39 ± 0.52 | 
ACUUAGCAAUAUUACGGCAG | -1.6 ± 0.092 | -0.759 ± 0.12
AGGAAGCAAUAUUACGGCAU | -1.28 ± 0.13 | -0.506 ± 0.15
GGCAAGCAAUAUUACGAAAG | -2.97 ± 0.28 | -2.24 ± 0.56
GUUGAGCAAUAUUACGUCGA | -1.66 ± 0.52 | -1.29 ± 0.71
CGGGAGCAAUAUUACGAUUA | -2.65 ± 1.1 | 

A section of the results above, as a working copy:
Sequence | self-splicing fitness (ln) (30 °C) | self-splicing fitness (ln) (37 °C)
GGCAAGCAAUAUUACGGCAC | -0.671 ± 0.071 | 0.369 ± 0.12
UGGGAGCAAUAUUACGGAAA |  | -2.18 ± 0.64
UCGGAGCAAUAUUACGCCGG | -0.831 ± 0.51 | -0.182 ± 0.73
CGCGAGCAAUAUUACGAAGC | -4.24 ± 0.74 | 
UAUUAGCAAUAUUACGCCGC | -1.82 ± 0.73 | 0.608 ± 1.1
ACGUAGCAAUAUUACGAAGC | -4.39 ± 0.52 | 

(list continues)

Sequence | self-splicing fitness (ln) (30 °C) | self-splicing fitness (ln) (37 °C)
UUGGAGCAAUAUUACGGAUU | -4.04 ± 0.52 | -2.57 ± 0.55
AGCGAGCAAUAUUACGCGGC | -3.48 ± 1.1 | -2.26 ± 0.77
AAAGAGCAAUAUUACGCUAA | -1.74 ± 0.84 | 
UGUGAGCAAUAUUACGGACC |  | 3.4 ± 1
ACUUAGCAAUAUUACGGUGG |  | -3.69 ± 0.52
GGGAAGCAAUAUUACGACCA | -1.75 ± 0.57 | 0.224 ± 0.84
CACCAGCAAUAUUACGCGCC | -2.68 ± 0.17 | -2.4 ± 0.2
GGCGAGCAAUAUUACGGUGU | -2.02 ± 0.25 | -1.55 ± 0.17
CGAGAGCAAUAUUACGGGUC | -3.77 ± 0.53 | 
AGCGAGCAAUAUUACGAAGA | -4.21 ± 0.52 | 
ACAGAGCAAUAUUACGCACA | -4.02 ± 0.61 | 
UUGCAGCAAUAUUACGCAGU | -4.59 ± 0.59 | -2.71 ± 0.39
CAGUAGCAAUAUUACGUAGU | -2.5 ± 0.13 | -2.54 ± 0.18
AGCCAGCAAUAUUACGUCCC |  | -0.595 ± 1.4
GUAGAGCAAUAUUACGAGGA |  | -1.63 ± 0.53
GUGGAGCAAUAUUACGGUGC | -2.76 ± 0.24 | -1.93 ± 0.25
AGGUAGCAAUAUUACGCUUG | -1.541 ± 0.015 | -1.04 ± 0.034
UAUUAGCAAUAUUACGGCCC |  | -1.09 ± 0.83
GUCGAGCAAUAUUACGGCCC | -2.87 ± 0.75 | 
GUACAGCAAUAUUACGUCAC | -3.78 ± 0.52 | 
GAAUAGCAAUAUUACGCUAU | -3.64 ± 0.75 | -3.51 ± 0.74
UUCUAGCAAUAUUACGGCCU |  | -0.745 ± 0.76
CAGGAGCAAUAUUACGAACC | -3.1 ± 0.61 | 

Sequence | self-splicing fitness (ln) (30 °C) | self-splicing fitness (ln) (37 °C)
GAAAAGCAAUAUUACGUUGG | -3.55 ± 0.19 | -2.16 ± 0.16
GGAUAGCAAUAUUACGCGGU | -2.47 ± 0.33 | -2.6 ± 0.38
UUCUAGCAAUAUUACGGUCU | -4.46 ± 1 | 
UUCUAGCAAUAUUACGGAAG | -2.14 ± 0.66 | 
CGAUAGCAAUAUUACGUUAA | -3.59 ± 0.21 | -1.15 ± 0.16
CUCUAGCAAUAUUACGUCAU | -2.83 ± 0.4 | -4.18 ± 0.39
AGCGAGCAAUAUUACGUCAC | -3.03 ± 0.77 | -3.08 ± 0.74
CCAUAGCAAUAUUACGUUGA | -3.57 ± 0.26 | -2.31 ± 0.15
CCAAAGCAAUAUUACGCCCC | -3.72 ± 0.6 | 
UCCAAGCAAUAUUACGAGAU |  | -4.35 ± 0.59
CCUUAGCAAUAUUACGCCGC |  | -1.66 ± 0.58
CUCAAGCAAUAUUACGCCAC | -3.76 ± 1 | -2.8 ± 0.53
CCCAAGCAAUAUUACGGUUC | -3.38 ± 0.13 | -2.6 ± 0.18
GGGUAGCAAUAUUACGCUUC |  | -2.48 ± 1.1
UACGAGCAAUAUUACGCGAC | -2.74 ± 0.58 | 
CGGGAGCAAUAUUACGCCAG | -2.44 ± 0.57 | -1.15 ± 0.84
AGCAAGCAAUAUUACGGCGA | -0.386 ± 0.094 | -0.039 ± 0.11
AUUUAGCAAUAUUACGCUGC | -2.29 ± 0.72 | -0.397 ± 0.54
AUCGAGCAAUAUUACGACCC | -2.17 ± 0.61 | -1.2 ± 0.73
CUUUAGCAAUAUUACGAAGA |  | -2.43 ± 0.34
UUCGAGCAAUAUUACGAAAC | -2.58 ± 0.8 | 
CAGAAGCAAUAUUACGCCAC | -2.77 ± 1.1 | 
UGGAAGCAAUAUUACGAAUC | -3.11 ± 0.53 | -2.48 ± 0.77

Reference: the supplement of paper PMC7877785
